In the supplement of paper PMC10849652:
This is one part of the list.

Amino acid sequences for entries named in this document (tags omitted). A change or cut given only in a name is not applied to a line headed by its entry.
UniProt Q92783: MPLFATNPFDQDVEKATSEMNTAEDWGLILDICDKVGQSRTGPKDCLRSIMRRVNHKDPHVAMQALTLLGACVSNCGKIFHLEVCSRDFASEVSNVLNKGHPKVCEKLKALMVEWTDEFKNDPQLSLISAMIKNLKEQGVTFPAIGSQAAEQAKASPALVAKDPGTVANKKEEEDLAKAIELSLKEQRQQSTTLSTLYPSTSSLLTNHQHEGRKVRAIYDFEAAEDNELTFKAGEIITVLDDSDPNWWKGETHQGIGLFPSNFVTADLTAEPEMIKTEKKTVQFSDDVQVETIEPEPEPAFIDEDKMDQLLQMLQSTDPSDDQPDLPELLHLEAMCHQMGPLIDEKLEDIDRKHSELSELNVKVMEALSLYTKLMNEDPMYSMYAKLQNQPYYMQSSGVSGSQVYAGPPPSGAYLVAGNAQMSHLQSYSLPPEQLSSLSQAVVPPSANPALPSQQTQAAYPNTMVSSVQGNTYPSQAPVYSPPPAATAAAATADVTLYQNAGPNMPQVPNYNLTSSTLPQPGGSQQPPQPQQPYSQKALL
UniProt O95772: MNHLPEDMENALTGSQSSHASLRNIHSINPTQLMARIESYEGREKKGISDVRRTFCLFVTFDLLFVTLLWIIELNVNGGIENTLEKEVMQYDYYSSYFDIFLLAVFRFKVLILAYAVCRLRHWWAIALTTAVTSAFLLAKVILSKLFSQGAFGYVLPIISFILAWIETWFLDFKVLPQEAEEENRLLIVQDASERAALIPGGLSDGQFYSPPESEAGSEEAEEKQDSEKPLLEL
UniProt Q86XZ4: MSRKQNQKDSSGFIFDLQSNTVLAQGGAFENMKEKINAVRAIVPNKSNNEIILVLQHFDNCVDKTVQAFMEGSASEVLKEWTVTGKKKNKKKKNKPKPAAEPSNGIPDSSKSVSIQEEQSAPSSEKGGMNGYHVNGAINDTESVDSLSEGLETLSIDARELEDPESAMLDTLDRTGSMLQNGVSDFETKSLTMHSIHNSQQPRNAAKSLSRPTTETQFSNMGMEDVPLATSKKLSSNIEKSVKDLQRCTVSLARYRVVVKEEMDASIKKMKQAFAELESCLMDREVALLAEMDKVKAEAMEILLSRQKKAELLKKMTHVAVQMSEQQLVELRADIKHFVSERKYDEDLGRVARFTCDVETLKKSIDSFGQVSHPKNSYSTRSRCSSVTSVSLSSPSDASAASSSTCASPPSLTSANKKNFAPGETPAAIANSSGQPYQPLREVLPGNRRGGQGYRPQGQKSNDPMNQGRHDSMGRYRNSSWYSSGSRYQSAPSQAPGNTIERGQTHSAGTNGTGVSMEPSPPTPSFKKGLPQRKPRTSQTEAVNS
UniProt Q13586, whole entry, looked up: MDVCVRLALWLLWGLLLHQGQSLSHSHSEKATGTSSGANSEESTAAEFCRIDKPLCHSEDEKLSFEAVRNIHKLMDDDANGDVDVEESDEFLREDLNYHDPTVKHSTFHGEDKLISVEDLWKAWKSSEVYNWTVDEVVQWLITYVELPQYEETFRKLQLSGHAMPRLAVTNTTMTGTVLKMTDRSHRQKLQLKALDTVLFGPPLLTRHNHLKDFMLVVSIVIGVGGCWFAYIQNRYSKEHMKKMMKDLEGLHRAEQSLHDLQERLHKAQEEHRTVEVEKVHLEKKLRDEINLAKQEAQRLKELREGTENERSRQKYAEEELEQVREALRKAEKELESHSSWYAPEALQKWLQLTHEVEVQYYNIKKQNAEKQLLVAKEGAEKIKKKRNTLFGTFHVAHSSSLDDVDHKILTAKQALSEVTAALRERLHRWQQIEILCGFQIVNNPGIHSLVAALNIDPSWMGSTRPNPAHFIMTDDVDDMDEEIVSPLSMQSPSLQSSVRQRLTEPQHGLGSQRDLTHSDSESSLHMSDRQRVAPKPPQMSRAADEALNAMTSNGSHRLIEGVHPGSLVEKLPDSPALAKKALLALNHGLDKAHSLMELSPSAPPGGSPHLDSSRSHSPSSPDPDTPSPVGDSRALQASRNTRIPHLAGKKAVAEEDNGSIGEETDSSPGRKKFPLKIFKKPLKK
UniProt Q9Y5M8: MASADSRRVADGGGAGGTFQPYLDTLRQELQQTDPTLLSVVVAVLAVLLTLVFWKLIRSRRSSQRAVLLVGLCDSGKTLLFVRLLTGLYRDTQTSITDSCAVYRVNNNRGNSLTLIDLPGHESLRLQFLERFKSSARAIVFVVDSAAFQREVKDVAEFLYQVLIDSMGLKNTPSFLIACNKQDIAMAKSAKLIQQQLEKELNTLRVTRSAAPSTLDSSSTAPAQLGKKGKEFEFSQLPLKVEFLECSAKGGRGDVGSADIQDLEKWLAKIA
UniProt P30626: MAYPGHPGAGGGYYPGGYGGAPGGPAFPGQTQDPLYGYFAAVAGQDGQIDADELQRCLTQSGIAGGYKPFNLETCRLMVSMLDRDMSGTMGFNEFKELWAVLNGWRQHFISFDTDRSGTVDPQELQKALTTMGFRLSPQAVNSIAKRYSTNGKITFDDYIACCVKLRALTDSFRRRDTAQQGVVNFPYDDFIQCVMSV
UniProt Q9UHB9: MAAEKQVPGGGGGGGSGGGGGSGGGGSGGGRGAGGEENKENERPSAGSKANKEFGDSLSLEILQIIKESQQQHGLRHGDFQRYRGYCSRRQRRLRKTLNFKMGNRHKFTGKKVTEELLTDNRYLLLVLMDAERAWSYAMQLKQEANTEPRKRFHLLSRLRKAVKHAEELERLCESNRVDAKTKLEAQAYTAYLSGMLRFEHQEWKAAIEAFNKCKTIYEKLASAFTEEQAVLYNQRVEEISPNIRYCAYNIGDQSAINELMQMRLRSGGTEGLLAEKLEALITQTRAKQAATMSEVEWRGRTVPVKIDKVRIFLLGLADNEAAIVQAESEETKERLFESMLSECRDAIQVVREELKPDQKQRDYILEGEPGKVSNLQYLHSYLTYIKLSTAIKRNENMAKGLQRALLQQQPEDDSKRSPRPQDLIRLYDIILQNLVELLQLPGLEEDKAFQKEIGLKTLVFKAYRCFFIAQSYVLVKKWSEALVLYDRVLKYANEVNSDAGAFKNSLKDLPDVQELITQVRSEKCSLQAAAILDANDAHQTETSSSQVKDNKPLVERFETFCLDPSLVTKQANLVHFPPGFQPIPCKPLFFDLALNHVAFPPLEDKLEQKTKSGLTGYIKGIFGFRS
UniProt Q9H2V7: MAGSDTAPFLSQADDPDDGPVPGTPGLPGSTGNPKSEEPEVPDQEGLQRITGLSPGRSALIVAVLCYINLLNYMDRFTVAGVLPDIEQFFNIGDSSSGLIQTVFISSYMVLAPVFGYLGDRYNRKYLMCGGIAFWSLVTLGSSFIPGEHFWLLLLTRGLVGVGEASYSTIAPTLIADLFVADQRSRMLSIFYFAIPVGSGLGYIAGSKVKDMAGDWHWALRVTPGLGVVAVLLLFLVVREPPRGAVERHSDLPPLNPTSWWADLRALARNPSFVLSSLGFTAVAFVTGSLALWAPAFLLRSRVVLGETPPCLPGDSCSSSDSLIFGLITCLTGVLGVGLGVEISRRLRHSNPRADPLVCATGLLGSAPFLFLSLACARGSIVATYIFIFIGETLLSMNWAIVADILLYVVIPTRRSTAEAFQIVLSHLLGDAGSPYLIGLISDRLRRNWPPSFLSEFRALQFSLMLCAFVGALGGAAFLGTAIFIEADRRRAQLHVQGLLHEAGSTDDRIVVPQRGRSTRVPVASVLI
UniProt O75494: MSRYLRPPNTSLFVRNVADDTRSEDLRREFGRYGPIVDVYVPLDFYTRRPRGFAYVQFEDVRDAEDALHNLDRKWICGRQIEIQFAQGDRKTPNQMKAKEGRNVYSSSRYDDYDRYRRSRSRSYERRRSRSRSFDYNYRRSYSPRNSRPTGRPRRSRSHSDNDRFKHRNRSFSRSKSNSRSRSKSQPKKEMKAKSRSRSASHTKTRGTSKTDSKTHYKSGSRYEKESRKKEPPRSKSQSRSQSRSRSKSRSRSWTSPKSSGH
UniProt P11277, whole entry, looked up: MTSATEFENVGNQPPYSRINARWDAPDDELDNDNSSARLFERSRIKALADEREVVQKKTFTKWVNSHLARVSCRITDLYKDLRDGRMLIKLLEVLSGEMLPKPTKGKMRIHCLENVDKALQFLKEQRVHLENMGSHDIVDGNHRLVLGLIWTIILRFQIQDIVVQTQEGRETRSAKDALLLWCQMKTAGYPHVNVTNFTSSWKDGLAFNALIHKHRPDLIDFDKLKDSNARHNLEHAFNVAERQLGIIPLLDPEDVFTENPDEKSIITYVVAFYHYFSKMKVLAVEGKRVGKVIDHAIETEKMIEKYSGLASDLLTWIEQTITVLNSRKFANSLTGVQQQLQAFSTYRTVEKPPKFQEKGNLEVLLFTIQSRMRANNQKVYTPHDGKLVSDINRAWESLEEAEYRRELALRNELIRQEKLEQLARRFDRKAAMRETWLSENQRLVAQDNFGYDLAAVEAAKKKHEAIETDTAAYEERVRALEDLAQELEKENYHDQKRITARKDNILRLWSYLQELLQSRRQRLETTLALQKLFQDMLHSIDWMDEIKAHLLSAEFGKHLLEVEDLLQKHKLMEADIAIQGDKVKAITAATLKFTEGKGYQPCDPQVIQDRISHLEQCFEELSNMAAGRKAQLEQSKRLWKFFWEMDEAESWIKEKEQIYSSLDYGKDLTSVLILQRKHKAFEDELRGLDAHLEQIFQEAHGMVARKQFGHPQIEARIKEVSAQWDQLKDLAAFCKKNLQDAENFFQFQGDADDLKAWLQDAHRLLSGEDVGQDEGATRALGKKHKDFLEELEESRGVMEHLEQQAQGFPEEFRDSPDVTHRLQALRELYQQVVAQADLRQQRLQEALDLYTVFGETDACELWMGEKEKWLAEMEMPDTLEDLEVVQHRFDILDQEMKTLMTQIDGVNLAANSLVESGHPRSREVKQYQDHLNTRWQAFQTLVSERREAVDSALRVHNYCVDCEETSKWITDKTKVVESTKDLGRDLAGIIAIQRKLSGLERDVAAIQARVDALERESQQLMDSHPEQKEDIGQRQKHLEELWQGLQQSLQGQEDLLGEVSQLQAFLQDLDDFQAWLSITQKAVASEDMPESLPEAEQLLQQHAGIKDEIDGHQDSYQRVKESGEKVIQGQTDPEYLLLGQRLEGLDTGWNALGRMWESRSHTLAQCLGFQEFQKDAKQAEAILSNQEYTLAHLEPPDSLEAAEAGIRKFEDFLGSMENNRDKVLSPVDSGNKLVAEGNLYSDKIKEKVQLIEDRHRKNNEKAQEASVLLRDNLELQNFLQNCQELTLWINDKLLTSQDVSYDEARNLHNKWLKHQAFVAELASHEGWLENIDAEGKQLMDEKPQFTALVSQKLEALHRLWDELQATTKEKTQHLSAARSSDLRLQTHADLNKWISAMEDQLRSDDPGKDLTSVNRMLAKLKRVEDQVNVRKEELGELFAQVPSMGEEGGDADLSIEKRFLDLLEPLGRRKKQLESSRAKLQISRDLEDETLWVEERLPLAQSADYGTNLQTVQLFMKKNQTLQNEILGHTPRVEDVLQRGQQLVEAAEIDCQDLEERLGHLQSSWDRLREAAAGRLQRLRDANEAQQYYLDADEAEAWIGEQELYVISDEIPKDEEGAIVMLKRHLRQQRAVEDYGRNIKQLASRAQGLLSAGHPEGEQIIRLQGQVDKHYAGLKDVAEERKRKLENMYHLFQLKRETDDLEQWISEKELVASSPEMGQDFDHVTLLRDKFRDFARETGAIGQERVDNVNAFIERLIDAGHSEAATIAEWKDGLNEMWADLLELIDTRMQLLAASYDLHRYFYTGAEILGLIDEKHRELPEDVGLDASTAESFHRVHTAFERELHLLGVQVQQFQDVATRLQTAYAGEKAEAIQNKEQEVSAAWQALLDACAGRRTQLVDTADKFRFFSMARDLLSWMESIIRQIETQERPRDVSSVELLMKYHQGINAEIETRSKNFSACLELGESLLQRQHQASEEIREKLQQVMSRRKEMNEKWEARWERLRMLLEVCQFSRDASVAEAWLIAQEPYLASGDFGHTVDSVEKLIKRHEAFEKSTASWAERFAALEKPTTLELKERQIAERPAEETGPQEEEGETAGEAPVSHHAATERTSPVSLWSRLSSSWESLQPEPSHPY
UniProt P50502: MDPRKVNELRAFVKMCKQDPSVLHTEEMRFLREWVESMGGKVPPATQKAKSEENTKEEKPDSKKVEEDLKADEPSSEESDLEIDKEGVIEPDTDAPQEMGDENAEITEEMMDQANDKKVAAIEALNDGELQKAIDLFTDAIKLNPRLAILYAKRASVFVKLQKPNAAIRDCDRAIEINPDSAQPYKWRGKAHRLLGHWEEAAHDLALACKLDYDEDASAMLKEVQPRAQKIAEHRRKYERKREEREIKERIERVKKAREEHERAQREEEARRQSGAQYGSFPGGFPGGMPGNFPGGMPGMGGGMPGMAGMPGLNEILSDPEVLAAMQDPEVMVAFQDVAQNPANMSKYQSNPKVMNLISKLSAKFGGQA

What was measured:
Assay in all cases: log2 fold change, soluble protein after heating vs DMSO (PISA); higher = thermal stabilisation; K562 lysate, 10 uM; active = over 0.2 and 3.5 SD of the protein, either way, in both replicates (recomputed)
[1] = compound: CS(=O)(=O)CCNCc1ccc(-c2ccc3ncnc(Nc4ccc(OCc5cccc(F)c5)c(Cl)c4)c3c2)o1 [lapatinib]
In short: (§1)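 Quantification was by TMTpro 16plex LC-MS/MS with equalised channel sums, applied to the supernatant after 21,000xg for 90 min. Samples were crude K562 extract at 1 mg/mL protein in PBS pH 7.4 with 1 mM MgCl2, treated with 10 μM compound for 30 min, heated for 3 min across 48°C-58°C, pooled and brought to 0.5% NP-40 at 4°C. Values are log-two fold changes in thermal stability relative to solvent controls, from duplicates.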

[2] = compound: CS(=O)(=O)N1CCN(Cc2cc3nc(-c4cccc5[nH]ncc45)nc(N4CCOCC4)c3s2)CC1 [pictilisib]
In short: as §1

[3] = compound: C[C@@H](Oc1cc(-c2cnn(C3CCNCC3)c2)cnc1N)c1c(Cl)ccc(F)c1Cl [crizotinib]
In short: as §1

[4] = compound: C[C@H](C1=CC=C(C=C1)C(=O)NC2=C3C=CNC3=NC=C2)N
In short: as §1

[5] = compound: C[C@H](Nc1ncnc2nc[nH]c12)c1cc2cccc(Cl)c2c(=O)n1-c1ccccc1 [duvelisib]
In short: as §1

[6] = compound: Cc1cc(Nc2cc(CN3CCOCC3)c3nc(C)c(Cc4ccc(Cl)cc4F)n3n2)n[nH]1 [gandotinib]
In short: as §1

[7] = compound: Cc1cc(Nc2cc(N3CCN(C)CC3)nc(Sc3ccc(NC(=O)C4CC4)cc3)n2)n[nH]1 [tozasertib]
In short: as §1

[8] = compound: Cc1ccc(-n2nc(C(C)(C)C)cc2NC(=O)Nc2ccc(OCCN3CCOCC3)c3ccccc23)cc1 [doramapimod]
In short: as §1

[9] = compound: Cc1ccc(NC(=O)c2ccc(CN3CC[C@H](N(C)C)C3)c(C(F)(F)F)c2)cc1Nc1nccc(-c2cncnc2)n1 [bafetinib]
In short: as §1

[10] = compound: Cc1cccc(CC(=O)N2CCc3c2ccc(-c2cn(C)c4ncnc(N)c24)c3F)n1
In short: as §1

[11] = compound: Cc1cn(-c2cc(NC(=O)c3ccc(C)c(Nc4nccc(-c5cccnc5)n4)c3)cc(C(F)(F)F)c2)cn1 [nilotinib]
In short: as §1

[12] = compound: Cc1nc(Nc2n[nH]c3c2CN(C(=O)N[C@H](CN(C)C)c2ccccc2)C3(C)C)c2sccc2n1
In short: as §1

[13] = compound: Cc1nc(Nc2ncc(C(=O)Nc3c(C)cccc3Cl)s2)cc(N2CCN(CCO)CC2)n1 [dasatinib]
In short: as §1

[14] = compound: Cc1ncc(-c2ccnc(Nc3ccc(S(C)(=O)=O)cc3)n2)n1C(C)C
In short: as §1

[15] = compound: Cn1cc(-c2ccc3c(c2)CCN3C(=O)Cc2cccc(C(F)(F)F)c2)c2c(N)ncnc21
In short: as §1

[16] = compound: Cn1cc(CNCC2CCN(c3ncc(C(=O)NO)cn3)CC2)c2ccccc21 [quisinostat]
In short: as §1

[17] = compound: Cn1cncc1[C@@](N)(c1ccc(Cl)cc1)c1ccc2c(c1)c(-c1cccc(Cl)c1)cc(=O)n2C [tipifarnib]
In short: as §1

[18] = compound: NC(=O)Nc1cc(-c2cccc(F)c2)sc1C(=O)N[C@H]1CCCNC1
In short: as §1

[19] = compound: NC(=O)c1cnc(N[C@@H]2CCCC[C@@H]2N)nc1Nc1cccc(-n2nccn2)c1
In short: as §1

[20] = compound: NC1(c2ccc(-c3nc4ccn5c(=O)[nH]nc5c4cc3-c3ccccc3)cc2)CCC1
In short: as §1

Measured: log2 fold change

SPEN (UniProt Q96T58)
inactive: [1] -0.013 | [2] -0.091 | [3] -0.068 | [4] -0.217 | [5] 0.007 | [6] 0.037 | [7] 0.003 | [8] 0.136 | [9] -0.097 | [10] 0.046 | [11] -0.034 | [12] -0.099 | [13] -0.066 | [14] 0.098 | [15] 0.088 | [16] -0.027 | [17] -0.055 | [18] -0.049 | [19] -0.029 | [20] -0.012

STAM (UniProt Q92783)
inactive: [1] 0.088 | [2] -0.007 | [3] 0.043 | [4] -0.032 | [5] 0.007 | [6] 0.038 | [7] -0.015 | [8] -0.006 | [9] 0.05 | [10] -0.008 | [11] 0.003 | [12] 0.018 | [13] 0.035 | [14] -0.013 | [15] 0 | [16] 0.036 | [17] 0.017 | [18] -0.008 | [19] 0.038 | [20] 0.009

STARD3NL (UniProt O95772)
inactive: [1] -0.046 | [2] -0.002 | [3] -0.065 | [4] -0.152 | [5] 0.006 | [6] 0.168 | [7] 0.05 | [8] 0.037 | [9] -0.058 | [10] 0.131 | [11] -0.104 | [12] -0.055 | [13] 0.056 | [14] 0.12 | [15] 0.079 | [16] -0.055 | [17] 0.117 | [18] 0.016 | [19] 0.073 | [20] 0.009

SPATS2 (UniProt Q86XZ4)
inactive: [1] 0.027 | [2] -0.119 | [3] 0.09 | [4] -0.016 | [5] 0.048 | [6] 0.145 | [7] -0.062 | [8] -0.126 | [9] -0.206 | [10] -0.164 | [11] -0.069 | [12] 0.042 | [13] -0.073 | [14] 0.074 | [15] -0.03 | [16] 0.144 | [17] 0.013 | [18] -0.107 | [19] -0.005 | [20] -0.013

STIM1 (UniProt Q13586)
inactive: [1] -0.056 | [2] -0.028 | [3] -0.053 | [4] 0.145 | [5] -0.007 | [6] -0.095 | [7] 0.032 | [8] 0.044 | [9] -0.056 | [10] -0.037 | [11] -0.031 | [12] -0.019 | [13] -0.03 | [14] 0.001 | [15] -0.027 | [16] 0.023 | [17] -0.012 | [18] 0.009 | [19] 0 | [20] -0.031

SRSF1 (UniProt Q07955)
inactive: [1] -0.008 | [2] -0.018 | [3] 0 | [4] 0.081 | [5] 0.01 | [6] -0.066 | [7] 0.005 | [8] 0.012 | [9] 0.016 | [10] -0.061 | [11] -0.023 | [12] -0.003 | [13] 0.037 | [14] -0.013 | [15] -0.004 | [16] -0.057 | [17] -0.015 | [18] -0.016 | [19] 0.045 | [20] -0.022

SRPRB (UniProt Q9Y5M8)
inactive: [1] -0.002 | [2] 0.009 | [3] 0.103 | [4] -0.03 | [5] -0.034 | [6] -0.088 | [7] 0.034 | [8] -0.014 | [9] 0.023 | [10] -0.02 | [11] 0.006 | [12] 0.015 | [13] -0.035 | [14] -0.053 | [15] -0.012 | [16] 0.018 | [17] -0.04 | [18] -0.024 | [19] -0.006 | [20] 0.034

SRI (UniProt P30626)
inactive: [1] 0.126 | [2] 0.004 | [3] 0.016 | [4] 0.169 | [5] 0.035 | [6] -0.091 | [7] 0.021 | [8] 0.019 | [9] -0.03 | [10] -0.071 | [11] 0.034 | [12] -0.018 | [13] 0.037 | [14] 0.04 | [15] -0.028 | [16] 0.036 | [17] 0.008 | [18] -0.102 | [19] -0.05 | [20] 0.028

SRP68 (UniProt Q9UHB9)
inactive: [1] 0.009 | [2] 0.027 | [3] -0.043 | [4] 0.19 | [5] -0.027 | [6] -0.145 | [7] -0.02 | [8] 0.066 | [9] -0.021 | [10] -0.115 | [11] 0.056 | [12] 0.009 | [13] -0.042 | [14] 0.007 | [15] 0.036 | [16] -0.023 | [17] -0.014 | [18] -0.008 | [19] -0.014 | [20] 0.009

SPNS1 (UniProt Q9H2V7)
inactive: [1] 0.025 | [2] -0.038 | [3] -0.004 | [4] -0.042 | [5] 0.04 | [6] 0.032 | [7] -0.073 | [8] 0.014 | [9] -0.054 | [10] 0.052 | [11] 0.04 | [12] -0.025 | [13] 0 | [14] -0.017 | [15] 0.028 | [16] -0.039 | [17] 0.069 | [18] -0.032 | [19] 0.013 | [20] -0.005

2 successive entries from above, for reference:
SRI (UniProt P30626)
inactive: [1] 0.126 | [2] 0.004 | [3] 0.016 | [4] 0.169 | [5] 0.035 | [6] -0.091 | [7] 0.021 | [8] 0.019 | [9] -0.03 | [10] -0.071 | [11] 0.034 | [12] -0.018 | [13] 0.037 | [14] 0.04 | [15] -0.028 | [16] 0.036 | [17] 0.008 | [18] -0.102 | [19] -0.05 | [20] 0.028

SRP68 (UniProt Q9UHB9)
inactive: [1] 0.009 | [2] 0.027 | [3] -0.043 | [4] 0.19 | [5] -0.027 | [6] -0.145 | [7] -0.02 | [8] 0.066 | [9] -0.021 | [10] -0.115 | [11] 0.056 | [12] 0.009 | [13] -0.042 | [14] 0.007 | [15] 0.036 | [16] -0.023 | [17] -0.014 | [18] -0.008 | [19] -0.014 | [20] 0.009

Following part.

SPECC1 (UniProt Q5M775)
inactive: [1] 0.032 | [2] 0 | [3] -0.025 | [4] 0.014 | [5] -0.004 | [6] 0.036 | [7] 0.065 | [8] 0.04 | [9] 0.032 | [10] -0.004 | [11] -0.035 | [12] -0.037 | [13] -0.038 | [14] -0.032 | [15] -0.007 | [16] -0.067 | [17] 0.036 | [18] 0.019 | [19] 0.045 | [20] 0.038

SRSF10 (UniProt O75494)
inactive: [1] 0.03 | [2] 0.097 | [3] -0.158 | [4] -0.005 | [5] 0.067 | [6] 0.001 | [7] 0.012 | [8] 0.054 | [9] -0.019 | [10] 0.058 | [11] -0.233 | [12] 0.001 | [13] 0.025 | [14] -0.019 | [15] 0.044 | [16] 0.003 | [17] -0.051 | [18] -0.045 | [19] -0.039 | [20] 0.026

SPTB isoform 2 (UniProt P11277)
inactive: [1] 0.011 | [2] -0.036 | [3] -0.065 | [4] -0.054 | [5] -0.027 | [6] -0.047 | [7] 0.009 | [8] 0.005 | [9] -0.061 | [10] 0.083 | [11] -0.012 | [12] -0.001 | [13] -0.092 | [14] 0.045 | [15] 0.048 | [16] -0.004 | [17] -0.014 | [18] 0.024 | [19] 0.008 | [20] -0.057

SPTAN1 (UniProt Q13813)
inactive: [1] -0.015 | [2] -0.02 | [3] 0.008 | [4] -0.043 | [5] -0.018 | [6] 0.019 | [7] 0.01 | [8] 0.009 | [9] 0.002 | [10] 0.007 | [11] 0.019 | [12] -0.008 | [13] 0.052 | [14] 0.01 | [15] 0 | [16] -0.023 | [17] 0.018 | [18] 0 | [19] 0.009 | [20] 0.008

ST13 (UniProt P50502)
inactive: [1] -0.014 | [2] -0.01 | [3] 0.004 | [4] 0.016 | [5] -0.004 | [6] 0.002 | [7] 0.013 | [8] 0.013 | [9] -0.004 | [10] -0.052 | [11] 0.045 | [12] -0.034 | [13] 0 | [14] -0.027 | [15] 0.01 | [16] 0.017 | [17] 0.028 | [18] -0.017 | [19] -0.015 | [20] 0.044

SPRY4 (UniProt Q9C004)
inactive: [1] -0.022 | [2] -0.001 | [3] -0.046 | [4] -0.022 | [5] 0.009 | [6] 0.126 | [7] -0.032 | [8] 0.026 | [9] 0.032 | [10] 0.029 | [11] 0.028 | [12] -0.041 | [13] 0.01 | [14] 0.05 | [15] -0.014 | [16] -0.007 | [17] -0.017 | [18] 0.022 | [19] 0.014 | [20] 0.012
